Results deposited as PubChem BioAssay AID1508588 (Peter MacCallum Cancer Centre, 2020).
Shown is a random part of about 18,000 deposited reagents. 790 of them (4.4%) were called active. 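Calls rest on a combination of fold-change classes in drug and vehicle arms, not all shown here.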

Aim: 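Which gene losses make BRAF-mutant melanoma cells more responsive to vemurafenib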 (primary screen)
Cell system: human WM266.4 melanoma cells (BRAF V600 mutant)
Reagents: siRNA pool against human genes, 40 nM
Time to read-out: 96 h from transfection to read-out
Treatment: vemurafenib 300 nM (about IC25), added 48 h after transfection, for 48 h; comparison arm got DMSO vehicle only
Measured: 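Ratios to non-targeting siRNA for cell gain, counted as DAPI nuclei after minus before drug and averaged over two replicates, and for absorbance-read medium lactate per cell; both binned into fold-change classes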
Direction: cell gain with vemurafenib: higher = more cell gain than with non-targeting siRNA; lactate per cell with vemurafenib: higher = more lactate made per cell
Call rule: 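Enhancement is called by pairing each knock-down's vehicle-arm and drug-arm fold-change classes for viability or glycolysis; which class combinations qualify is not given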
Calls: active = enhances vemurafenib effect; inactive = no enhancement seen

Target gene	cell gain with vemurafenib	lactate per cell with vemurafenib	activity call
N4BP2L2	0.36	0.73	inactive
ZNF326	0.6	0.86	inactive
FAM110B	0.64	0.31	inactive
LAP3	0.53	1.01	inactive
NISCH	0.75	1.46	inactive
IFNGR2	0.84	1.16	inactive
AP5B1	1.1	0.46	inactive
H4C13	0.8	0.56	inactive
ZBED2	0.4	0.84	inactive
XAGE3	0	1.62	inactive
CMA1	0.29	0.3	active
PLK1	-0.11	3.29	inactive
HSPBAP1	0.03	0.16	active
RNF8	1.03	0.89	inactive
NFE2L2	0.56	1.09	inactive
PYDC2	0.53	0.34	active
CLGN	0.36	0.82	inactive
NEK7	1.34	0.75	inactive
ACSM4	1.15	0.84	inactive
COL17A1	0.8	0.74	inactive
RIOK2	0.34	1.5	inactive
RPL28	0.12	1.61	inactive
KRTAP10-4	0.77	0.7	inactive
CEMP1	0.48	1.16	inactive
HNRNPC	0.05	2.99	inactive
TRIM73	0.78	0.92	inactive
KCNE2	0.64	1.12	inactive
INTS10	0.3	0.92	inactive
CLYBL	1.14	0.69	inactive
SLC49A4	0.95	0.56	inactive
CARD14	0.34	0.36	active
C1orf210	0.34	1.92	inactive
TMEM237	0.55	0.62	inactive
ZMYM1	0.6	1.52	inactive
SH3GL1	0.58	1.2	inactive
PGM3	0.78	0.64	inactive

The list goes on, starting with the last 12 of the part before.
Target gene	cell gain with vemurafenib	lactate per cell with vemurafenib	activity call
HNRNPC	0.05	2.99	inactive
TRIM73	0.78	0.92	inactive
KCNE2	0.64	1.12	inactive
INTS10	0.3	0.92	inactive
CLYBL	1.14	0.69	inactive
SLC49A4	0.95	0.56	inactive
CARD14	0.34	0.36	active
C1orf210	0.34	1.92	inactive
TMEM237	0.55	0.62	inactive
ZMYM1	0.6	1.52	inactive
SH3GL1	0.58	1.2	inactive
PGM3	0.78	0.64	inactive
PCM1	0.23	0.72	inactive
RBM6	0.52	0.76	inactive
CAB39L	0.49	0.2	inactive
DNAJC6	0.23	1.57	inactive
FBXL21P	0.25	2.34	inactive
IRX3	0.57	0.23	inactive
LMBR1	0.34	1.46	inactive
PCDH1	1.04	0.8	inactive
TNS1	0.32	0.8	inactive
CCNB1IP1	0.95	0.48	inactive
SLC17A2	1.39	0.88	inactive
RNF183	1.22	0.68	inactive
TLR2	0.7	0.86	inactive
GRAMD1B	0.96	1.41	inactive
SCARB2	0.61	1.42	inactive
TIMP4	0.95	0.18	active
PCSK5	0.43	1.42	inactive
SMDT1	1.12	0.86	inactive
OR8J1	0.46	0.88	inactive
TRIM67	1.08	0.82	inactive
ITGAE	0.6	1.26	inactive
SLC45A2	0.88	0.85	inactive
MORC4	0.7	0.53	inactive
NEUROD2	0.58	0.34	active
EIF2D	0.8	0.5	inactive
DMP1	0.82	0.63	inactive
AIMP2	0.7	1.12	inactive
PPP1R27	0.76	0.36	inactive
TUBA1C	-0.07	1.6	inactive
SGCZ	0.63	0.87	inactive
KRT16	0.55	1.58	inactive
FOXO4	0.68	0.4	active
ZAP70	0.99	0.74	inactive
KDM7A	0.97	0.75	inactive
HES5	0.56	1.02	inactive
FAM43B	0.61	1.04	inactive
RTN4RL1	1.12	0.74	inactive
KBTBD2	0.36	1.29	inactive
BOC	0.65	0.93	inactive
RBM14	1.06	0.78	inactive
OR2L2	0	0.91	inactive
DAND5	0.38	2	inactive
FGF12	0.98	1.5	inactive
YEATS4	0.42	1.6	inactive
TPD52	0.65	0.8	inactive
PIP5KL1	0.22	1.81	inactive
SCGB1C1	0.47	0.67	inactive
ZNF714	0.78	0.8	inactive
